Experimental findings from article PMC5946105 are described below.

Amino acid sequences for entries named in this document (tags omitted).
UniProt P12814: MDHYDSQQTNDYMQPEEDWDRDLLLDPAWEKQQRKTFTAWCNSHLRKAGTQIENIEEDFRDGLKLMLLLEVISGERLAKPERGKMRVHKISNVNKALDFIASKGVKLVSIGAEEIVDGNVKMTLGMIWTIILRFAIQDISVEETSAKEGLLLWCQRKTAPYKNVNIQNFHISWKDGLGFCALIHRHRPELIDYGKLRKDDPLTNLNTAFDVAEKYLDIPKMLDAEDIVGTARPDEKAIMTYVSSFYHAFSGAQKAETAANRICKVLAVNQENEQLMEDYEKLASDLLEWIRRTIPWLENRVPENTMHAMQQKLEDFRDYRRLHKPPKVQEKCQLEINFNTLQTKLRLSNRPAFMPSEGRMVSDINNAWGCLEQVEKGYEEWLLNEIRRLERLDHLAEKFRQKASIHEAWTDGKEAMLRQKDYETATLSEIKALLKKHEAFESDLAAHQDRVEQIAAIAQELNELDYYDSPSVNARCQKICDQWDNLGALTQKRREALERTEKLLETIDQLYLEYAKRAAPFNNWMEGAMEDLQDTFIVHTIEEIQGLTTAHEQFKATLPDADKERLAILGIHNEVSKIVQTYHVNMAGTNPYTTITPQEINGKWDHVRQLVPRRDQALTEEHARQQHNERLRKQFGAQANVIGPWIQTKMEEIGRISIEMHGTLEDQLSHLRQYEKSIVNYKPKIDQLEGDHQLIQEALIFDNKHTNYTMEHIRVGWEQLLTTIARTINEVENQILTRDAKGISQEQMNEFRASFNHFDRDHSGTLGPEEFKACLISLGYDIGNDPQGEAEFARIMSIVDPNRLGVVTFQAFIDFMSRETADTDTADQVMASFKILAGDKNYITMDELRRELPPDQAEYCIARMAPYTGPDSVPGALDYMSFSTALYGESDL

Experiment [1] deals with α-actinin-1–GST (human) (UniProt P12814). The experiment is described as follows: pull-down; 5 µg α-actinin-1–GST coupled to glutathione sepharose beads; lysate of MCF10A flotillin-2 shRNA cells (about 20% of flotillin-1 left), 1.2 mg total protein; Western blot; only the target purified.
For experiment [2] the target is unchanged. The experiment is described as follows: pull-down; 5 µg α-actinin-1–GST coupled to glutathione sepharose beads; MCF10A control cell lysate, 1.2 mg total protein; Western blot; only the target purified. On the technique in general: Immunoblotting shows a protein as a band on a membrane.

No constants are given. Whether binding was seen depends on the method and setting. In cells and extracts the contact can be indirect. Some entries that bind do so weakly or less than the wild type.

B1: flotillin-1 (protein, UniProt O75955 1-427)
chain: MFFTCGPNEAMVVSGFCRSPPVMVAGGRVFVLPCIQQIQRISLNTLTLNVKSEKVYTRHGVPISVTGIAQVKIQGQNKEMLAAACQMFLGKTEAEIAHIALETLEGHQRAIMAHMTVEEIYKDRQKFSEQVFKVASSDLVNMGISVVSYTLKDIHDDQDYLHSLGKARTAQVQKDARIGEAEAKRDAGIREAKAKQEKVSAQYLSEIEMAKAQRDYELKKAAYDIEVNTRRAQADLAYQLQVAKTKQQIEEQRVQVQVVERAQQVAVQEQEIARREKELEARVRKPAEAERYKLERLAEAEKSQLIMQAEAEAASVRMRGEAEAFAIGARARAEAEQMAKKAEAFQLYQEAAQLDMLLEKLPQVAEEISGPLTSANKITLVSSGSGTMGAAKVTGEVLDILTRLPESVERLTGVSISQVNHKPLRTA
Consider B1, for which the results for the binding entry in the experiment with α-actinin-1–GST (human) [1] and with α-actinin-1–GST (human) [2] were “binds weakly” and “binds”, respectively.
